Source: the supplement of paper PMC12819154, “High-throughput peptide-centric local stability assay extends protein–ligand identification to membrane proteins, tissues and bacteria” (Nature Structural & Molecular Biology, 2025)
This is one part of the list. Most entries show no effect beyond the scatter of the controls.

Amino acid sequences for entries named in this document (tags omitted). A change or cut given only in a name is not applied to a line headed by its entry.
UniProt Q7KZF4: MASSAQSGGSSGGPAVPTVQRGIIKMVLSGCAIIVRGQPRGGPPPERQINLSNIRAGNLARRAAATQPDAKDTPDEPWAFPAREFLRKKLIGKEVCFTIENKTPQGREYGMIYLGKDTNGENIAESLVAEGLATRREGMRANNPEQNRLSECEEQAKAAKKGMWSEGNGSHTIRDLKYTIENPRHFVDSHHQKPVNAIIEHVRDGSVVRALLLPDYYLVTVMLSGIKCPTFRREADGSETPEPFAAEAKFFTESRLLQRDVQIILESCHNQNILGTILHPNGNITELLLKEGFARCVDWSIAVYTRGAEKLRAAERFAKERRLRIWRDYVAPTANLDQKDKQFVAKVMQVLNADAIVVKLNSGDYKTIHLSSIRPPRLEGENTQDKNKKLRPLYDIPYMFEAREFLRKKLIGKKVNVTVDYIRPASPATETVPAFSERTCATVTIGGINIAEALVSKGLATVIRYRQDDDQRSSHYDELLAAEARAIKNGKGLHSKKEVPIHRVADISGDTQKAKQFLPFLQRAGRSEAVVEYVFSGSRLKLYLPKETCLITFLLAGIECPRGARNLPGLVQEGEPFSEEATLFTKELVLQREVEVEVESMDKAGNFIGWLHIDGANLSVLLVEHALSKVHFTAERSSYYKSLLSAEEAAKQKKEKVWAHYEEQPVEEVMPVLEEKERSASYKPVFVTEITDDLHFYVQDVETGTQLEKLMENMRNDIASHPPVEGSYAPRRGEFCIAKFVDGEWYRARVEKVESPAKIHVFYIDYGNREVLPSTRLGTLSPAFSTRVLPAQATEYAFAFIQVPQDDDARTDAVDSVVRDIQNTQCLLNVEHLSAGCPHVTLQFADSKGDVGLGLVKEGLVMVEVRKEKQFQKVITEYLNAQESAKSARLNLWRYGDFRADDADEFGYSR
UniProt Q7Z4L5: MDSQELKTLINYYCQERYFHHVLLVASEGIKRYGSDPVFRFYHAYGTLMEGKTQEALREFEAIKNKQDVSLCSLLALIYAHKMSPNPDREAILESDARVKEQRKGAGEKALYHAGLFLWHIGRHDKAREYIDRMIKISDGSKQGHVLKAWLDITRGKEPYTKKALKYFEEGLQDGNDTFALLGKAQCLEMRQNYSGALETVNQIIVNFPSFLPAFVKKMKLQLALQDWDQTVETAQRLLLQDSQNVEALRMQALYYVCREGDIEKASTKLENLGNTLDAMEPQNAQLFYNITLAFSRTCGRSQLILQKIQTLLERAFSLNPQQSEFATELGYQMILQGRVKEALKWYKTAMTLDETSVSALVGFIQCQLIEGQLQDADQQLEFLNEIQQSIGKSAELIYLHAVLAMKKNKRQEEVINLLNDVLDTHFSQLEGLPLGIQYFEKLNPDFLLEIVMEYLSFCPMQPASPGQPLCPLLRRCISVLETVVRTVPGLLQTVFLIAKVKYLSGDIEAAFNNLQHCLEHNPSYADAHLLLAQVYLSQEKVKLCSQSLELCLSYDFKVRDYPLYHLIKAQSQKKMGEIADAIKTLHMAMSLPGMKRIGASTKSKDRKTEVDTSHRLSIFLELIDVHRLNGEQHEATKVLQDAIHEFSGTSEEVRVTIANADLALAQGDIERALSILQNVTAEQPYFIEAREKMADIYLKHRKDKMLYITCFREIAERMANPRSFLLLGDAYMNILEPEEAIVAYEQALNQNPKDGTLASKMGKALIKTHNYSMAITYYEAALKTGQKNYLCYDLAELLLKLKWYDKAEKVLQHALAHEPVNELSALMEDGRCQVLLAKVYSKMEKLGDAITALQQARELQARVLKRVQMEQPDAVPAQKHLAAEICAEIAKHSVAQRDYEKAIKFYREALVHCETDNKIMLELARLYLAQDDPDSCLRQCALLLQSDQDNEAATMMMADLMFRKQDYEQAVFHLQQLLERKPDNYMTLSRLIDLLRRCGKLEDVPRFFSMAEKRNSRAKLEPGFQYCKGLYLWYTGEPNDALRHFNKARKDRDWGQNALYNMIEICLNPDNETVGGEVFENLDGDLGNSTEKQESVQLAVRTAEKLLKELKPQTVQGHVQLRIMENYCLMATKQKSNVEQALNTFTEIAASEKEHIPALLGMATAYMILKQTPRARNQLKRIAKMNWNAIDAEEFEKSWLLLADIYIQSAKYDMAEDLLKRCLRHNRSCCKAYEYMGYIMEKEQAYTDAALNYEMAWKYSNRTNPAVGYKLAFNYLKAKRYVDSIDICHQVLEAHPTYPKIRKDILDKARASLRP
UniProt Q6ZNA4: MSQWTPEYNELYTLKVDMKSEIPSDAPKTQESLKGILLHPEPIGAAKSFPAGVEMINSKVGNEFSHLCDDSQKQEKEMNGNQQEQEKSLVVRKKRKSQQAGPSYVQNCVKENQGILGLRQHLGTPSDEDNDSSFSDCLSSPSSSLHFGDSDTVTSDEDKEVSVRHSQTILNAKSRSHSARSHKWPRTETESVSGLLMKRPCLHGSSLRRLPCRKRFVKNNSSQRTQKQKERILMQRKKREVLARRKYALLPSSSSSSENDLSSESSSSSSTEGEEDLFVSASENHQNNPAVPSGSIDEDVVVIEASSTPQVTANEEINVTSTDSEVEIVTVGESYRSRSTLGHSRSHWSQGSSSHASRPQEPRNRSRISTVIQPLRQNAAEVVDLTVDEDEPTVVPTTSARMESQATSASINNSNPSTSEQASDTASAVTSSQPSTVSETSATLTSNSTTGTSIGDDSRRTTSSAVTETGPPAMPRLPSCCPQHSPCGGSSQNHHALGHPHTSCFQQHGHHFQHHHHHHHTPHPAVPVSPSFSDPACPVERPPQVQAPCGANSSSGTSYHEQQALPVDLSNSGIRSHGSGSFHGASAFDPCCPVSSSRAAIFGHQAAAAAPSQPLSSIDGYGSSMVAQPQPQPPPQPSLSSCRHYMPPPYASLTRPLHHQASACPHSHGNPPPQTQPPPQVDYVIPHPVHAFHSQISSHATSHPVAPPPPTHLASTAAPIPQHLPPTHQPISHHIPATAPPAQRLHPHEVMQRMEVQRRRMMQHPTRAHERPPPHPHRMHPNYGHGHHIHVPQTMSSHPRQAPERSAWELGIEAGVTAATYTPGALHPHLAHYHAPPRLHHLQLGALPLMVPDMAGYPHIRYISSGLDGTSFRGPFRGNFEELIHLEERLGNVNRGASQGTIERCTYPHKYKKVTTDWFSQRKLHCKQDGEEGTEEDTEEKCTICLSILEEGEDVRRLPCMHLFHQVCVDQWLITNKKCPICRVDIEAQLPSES
UniProt Q7Z4H7: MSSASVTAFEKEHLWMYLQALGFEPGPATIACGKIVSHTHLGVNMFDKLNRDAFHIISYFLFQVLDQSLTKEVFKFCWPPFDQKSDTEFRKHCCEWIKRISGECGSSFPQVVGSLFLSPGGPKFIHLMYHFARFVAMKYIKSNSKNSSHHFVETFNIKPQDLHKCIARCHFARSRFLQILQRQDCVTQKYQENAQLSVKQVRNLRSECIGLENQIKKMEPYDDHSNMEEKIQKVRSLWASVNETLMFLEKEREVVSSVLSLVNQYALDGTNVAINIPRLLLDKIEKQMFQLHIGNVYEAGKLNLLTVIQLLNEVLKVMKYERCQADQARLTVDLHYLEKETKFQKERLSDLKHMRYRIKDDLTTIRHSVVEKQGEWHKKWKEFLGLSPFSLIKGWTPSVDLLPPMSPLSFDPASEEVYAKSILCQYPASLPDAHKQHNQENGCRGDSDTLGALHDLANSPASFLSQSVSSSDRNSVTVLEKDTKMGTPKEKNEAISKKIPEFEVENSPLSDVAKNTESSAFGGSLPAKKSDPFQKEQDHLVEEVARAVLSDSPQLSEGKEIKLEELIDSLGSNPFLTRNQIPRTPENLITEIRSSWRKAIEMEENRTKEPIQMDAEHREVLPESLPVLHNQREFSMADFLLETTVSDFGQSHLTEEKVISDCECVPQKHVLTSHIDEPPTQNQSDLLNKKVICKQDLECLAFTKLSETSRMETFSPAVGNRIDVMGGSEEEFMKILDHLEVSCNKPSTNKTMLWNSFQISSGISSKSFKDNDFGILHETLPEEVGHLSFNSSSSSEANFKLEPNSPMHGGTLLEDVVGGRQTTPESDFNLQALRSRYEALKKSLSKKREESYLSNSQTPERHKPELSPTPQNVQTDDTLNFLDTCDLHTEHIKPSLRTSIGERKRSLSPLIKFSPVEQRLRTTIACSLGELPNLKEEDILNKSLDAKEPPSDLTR
UniProt Q7Z460: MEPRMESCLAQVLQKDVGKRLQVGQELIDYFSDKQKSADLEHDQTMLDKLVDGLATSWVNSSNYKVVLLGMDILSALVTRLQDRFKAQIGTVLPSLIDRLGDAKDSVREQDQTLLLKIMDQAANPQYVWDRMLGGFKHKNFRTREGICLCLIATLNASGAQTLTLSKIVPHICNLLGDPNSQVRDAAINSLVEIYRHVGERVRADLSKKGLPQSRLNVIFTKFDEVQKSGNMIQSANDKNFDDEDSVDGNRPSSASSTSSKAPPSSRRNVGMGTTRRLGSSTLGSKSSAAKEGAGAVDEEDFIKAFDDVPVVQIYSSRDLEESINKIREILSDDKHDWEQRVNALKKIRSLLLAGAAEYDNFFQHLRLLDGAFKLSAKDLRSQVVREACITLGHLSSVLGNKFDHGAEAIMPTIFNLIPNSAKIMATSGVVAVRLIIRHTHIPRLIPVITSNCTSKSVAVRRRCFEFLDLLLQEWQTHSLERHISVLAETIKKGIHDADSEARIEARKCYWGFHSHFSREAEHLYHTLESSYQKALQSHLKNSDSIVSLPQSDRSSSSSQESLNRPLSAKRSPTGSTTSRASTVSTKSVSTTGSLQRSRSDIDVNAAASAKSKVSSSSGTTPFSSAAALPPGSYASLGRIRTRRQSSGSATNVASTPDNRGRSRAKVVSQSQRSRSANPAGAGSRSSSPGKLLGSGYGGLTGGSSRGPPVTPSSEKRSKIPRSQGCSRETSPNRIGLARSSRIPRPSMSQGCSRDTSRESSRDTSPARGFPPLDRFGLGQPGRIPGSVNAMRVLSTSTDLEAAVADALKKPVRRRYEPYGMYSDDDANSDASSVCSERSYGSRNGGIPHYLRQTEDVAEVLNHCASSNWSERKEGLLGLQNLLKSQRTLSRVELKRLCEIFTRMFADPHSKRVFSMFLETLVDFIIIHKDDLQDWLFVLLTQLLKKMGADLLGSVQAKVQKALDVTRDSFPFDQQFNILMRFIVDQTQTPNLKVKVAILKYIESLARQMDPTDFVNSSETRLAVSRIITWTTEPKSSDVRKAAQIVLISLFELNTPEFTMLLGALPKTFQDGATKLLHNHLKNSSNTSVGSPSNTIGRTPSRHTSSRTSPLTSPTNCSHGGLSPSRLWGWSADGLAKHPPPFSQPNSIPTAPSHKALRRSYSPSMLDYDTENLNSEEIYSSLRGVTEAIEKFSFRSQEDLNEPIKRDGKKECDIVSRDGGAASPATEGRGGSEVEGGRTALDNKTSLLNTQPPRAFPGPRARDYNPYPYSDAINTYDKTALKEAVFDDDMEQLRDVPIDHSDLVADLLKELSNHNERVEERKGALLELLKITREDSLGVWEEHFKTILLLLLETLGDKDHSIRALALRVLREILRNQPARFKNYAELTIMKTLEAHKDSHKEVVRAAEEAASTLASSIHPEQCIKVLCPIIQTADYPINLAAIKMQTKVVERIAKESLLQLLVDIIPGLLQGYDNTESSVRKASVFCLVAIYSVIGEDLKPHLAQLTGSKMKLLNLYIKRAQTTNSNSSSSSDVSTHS
UniProt Q7L1T6: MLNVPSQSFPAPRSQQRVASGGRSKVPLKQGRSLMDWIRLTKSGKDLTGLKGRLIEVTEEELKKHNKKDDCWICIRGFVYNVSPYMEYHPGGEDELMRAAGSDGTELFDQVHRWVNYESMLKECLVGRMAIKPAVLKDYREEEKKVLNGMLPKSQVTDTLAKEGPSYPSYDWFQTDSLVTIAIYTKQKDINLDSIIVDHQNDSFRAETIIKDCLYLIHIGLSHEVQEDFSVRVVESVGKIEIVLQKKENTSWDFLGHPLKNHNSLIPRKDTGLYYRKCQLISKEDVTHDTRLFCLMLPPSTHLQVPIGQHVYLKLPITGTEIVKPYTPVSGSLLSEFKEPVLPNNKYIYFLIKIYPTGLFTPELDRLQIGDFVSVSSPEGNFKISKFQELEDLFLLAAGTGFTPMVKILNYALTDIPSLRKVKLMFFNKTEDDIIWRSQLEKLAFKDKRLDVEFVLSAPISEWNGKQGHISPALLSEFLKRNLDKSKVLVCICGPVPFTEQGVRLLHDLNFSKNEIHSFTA
UniProt Q6UXN9, whole entry: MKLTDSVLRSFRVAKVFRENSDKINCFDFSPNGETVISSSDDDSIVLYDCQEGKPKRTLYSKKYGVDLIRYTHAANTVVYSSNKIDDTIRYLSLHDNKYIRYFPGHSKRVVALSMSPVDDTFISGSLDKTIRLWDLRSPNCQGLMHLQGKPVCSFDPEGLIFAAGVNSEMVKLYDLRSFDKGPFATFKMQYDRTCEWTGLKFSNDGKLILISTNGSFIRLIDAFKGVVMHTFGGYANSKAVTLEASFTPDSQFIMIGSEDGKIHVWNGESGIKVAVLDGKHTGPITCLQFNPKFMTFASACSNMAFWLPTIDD

Each target was assayed with Cc1nc(Nc2ncc(C(=O)Nc3c(C)cccc3Cl)s2)cc(N2CCN(CCO)CC2)n1 [dasatinib] (assay: log2 fold change of tryptic peptide abundance, ligand vs vehicle (limited proteolysis) (log2 ratio); higher = more trypsin-susceptible (destabilized)). Details: ligand concentration: 5 uM; sample: K562 cleared lysate.

Row | Target | log2 fold change
1 | DHX29 (peptide sequence: KLQEDGLLSNVSHVIVDEVHER, peptide start residue: 686) (UniProt Q7Z478) | -0.576
2 | SND1 (peptide sequence: QINLSNIRAGNLAR, peptide start residue: 48) (UniProt Q7KZF4) | 0.906
3 | UniProt Q6UWZ7 (peptide sequence: LLDTQDKR, peptide start residue: 362) | -0.16
4 | UniProt Q86TB3 (peptide sequence: RESEAGQK, peptide start residue: 2053) | 0.231
5 | TTC21B (peptide sequence: MSPNPDREAILESDAR, peptide start residue: 83) (UniProt Q7Z4L5) | -0.674
6 | RNF111 (peptide sequence: HSQTILNAK, peptide start residue: 165) (UniProt Q6ZNA4) | 0.79
7 | UniProt Q7Z4H7 (peptide sequence: HVLTSHIDEPPTQNQSDLLNK, peptide start residue: 669) | 0.293
8 | CLASP1 (peptide sequence: GPPVTPSSEKR, peptide start residue: 707) (UniProt Q7Z460) | -0.296
9 | CYB5R4 (peptide sequence: KVLNGMLPK, peptide start residue: 145) (UniProt Q7L1T6) | 0.271
10 | UniProt Q6UXN9 (peptide sequence: LILISTNGSFIR, peptide start residue: 208) | -0.335
11 | NUFIP2 (peptide sequence: TSPQVLGSILK, peptide start residue: 571) (UniProt Q7Z417) | -0.0639

Reprinted: entries 3 to 4
Row | Target | log2 fold change
3 | UniProt Q6UWZ7 (peptide sequence: LLDTQDKR, peptide start residue: 362) | -0.16
4 | UniProt Q86TB3 (peptide sequence: RESEAGQK, peptide start residue: 2053) | 0.231
